Test results from paper PMC9429925.
These are yes or no findings as the source states them, for the method shown. Some entries that bind do so weakly or less than the wild type. For some of these results: Tags and fused reporters may be left off the sequences shown. Each block holds one binder with its values, some of them ahead of it.

What was measured:
T25-DcuR (E. coli) = molecular target: T1, T25-DcuR (E. coli) (UniProt P0AD01); test: two-hybrid; bacterial two-hybrid BACTH in E. coli BTH101 (ΔcyaA); T25 N-terminally on DcuR, T18 C-terminally on DcuS or PASC-Kin; β-galactosidase activity in Miller units; wild-type pair also with fumarate
T1 sequence: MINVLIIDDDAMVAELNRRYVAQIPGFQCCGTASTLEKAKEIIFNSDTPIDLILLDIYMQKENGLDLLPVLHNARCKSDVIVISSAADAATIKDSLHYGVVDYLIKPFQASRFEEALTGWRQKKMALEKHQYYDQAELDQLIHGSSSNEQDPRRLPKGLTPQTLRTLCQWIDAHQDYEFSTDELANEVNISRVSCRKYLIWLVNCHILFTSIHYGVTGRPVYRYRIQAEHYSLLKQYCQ

His6-DcuR (E. coli) = His6-DcuR (E. coli) (UniProt P0AD01); test: SEC; each protein alone on HiLoad 16/600 Sephadex 200; His6-PASc-Kinase 45 μM, DcuR 55 μM; 50 mM Tris-HCl, 1 mM DTT, 50 mM KCl, 5 mM MgCl2, pH 7.7, 25°C; Mr by calibration with protein standards; both purified
[1] = molecular target: phosphorylated DcuR (DcuR-P) (E. coli) (UniProt P0AD01); test: as above

B1: PASc-Kin-T18 [DcuS(211-539)] (domain or fragment, UniProt P0AEC8 211-539)
chain: GLEPYEISTLFEQRQAMLQSIKEGVVAVDDRGEVTLINDAAQELLNYRKSQDDEKLSTLSHSWSQVVDVSEVLRDGTPRRDEEITIKDRLLLINTVPVRSNGVIIGAISTFRDKTEVRKLMQRLDGLVNYADALRERSHEFMNKLHVILGLLHLKSYKQLEDYILKTANNYQEEIGSLLGKIKSPVIAGFLISKINRATDLGHTLILNSESQLPDSGSEDQVATLITTLGNLIENALEALGPEPGGEISVTLHYRHGWLHCEVNDDGPGIAPDKIDHIFDKGVSTKGSERGVGLALVKQQVENLGGSIAVESEPGIFTQFFVQIPWDGE
binding (T25-DcuR (E. coli)): binds

B4: DcuS-T18 (protein, UniProt P0AEC8 1-543)
chain: MRHSLPYRMLRKRPMKLSTTVILMVSAVLFSVLLVVHLIYFSQISDMTRDGLANKALAVARTLADSPEIRQGLQKKPQESGIQAIAEAVRKRNDLLFIVVTDMQSLRYSHPEAQRIGQPFKGDDILKALNGEENVAINRGFLAQALRVFTPIYDENHKQIGVVAIGLELSRVTQQINDSRWSIIWSVLFGMLVGLIGTCILVKVLKKILFGLEPYEISTLFEQRQAMLQSIKEGVVAVDDRGEVTLINDAAQELLNYRKSQDDEKLSTLSHSWSQVVDVSEVLRDGTPRRDEEITIKDRLLLINTVPVRSNGVIIGAISTFRDKTEVRKLMQRLDGLVNYADALRERSHEFMNKLHVILGLLHLKSYKQLEDYILKTANNYQEEIGSLLGKIKSPVIAGFLISKINRATDLGHTLILNSESQLPDSGSEDQVATLITTLGNLIENALEALGPEPGGEISVTLHYRHGWLHCEVNDDGPGIAPDKIDHIFDKGVSTKGSERGVGLALVKQQVENLGGSIAVESEPGIFTQFFVQIPWDGERSNR
binding (T25-DcuR (E. coli)): binds

Second part, the binder after the results:

binding (His6-DcuR (E. coli)): no binding (tested: 55 μM)
B2: His6-DcuR (protein, UniProt P0AD01 1-239)
chain: T1 sequence

binding [1]: no binding (tested: 55 μM)
B3: phosphorylated DcuR (DcuR-P) (protein, UniProt P0AD01 1-239)
chain: T1 sequence
modifications: phosphorylated with carbamoyl phosphate; phosphorylation site Asp56
